Measurements: patent publication US7713952B2, “2-methylene-19,26,27-trinor-(20S)-1α-hydroxyvitamin D3 and its uses” (Wisconsin Alumni Research Foundation, priority 2004, dated 2010)

System: 24-hydroxylase (24Ohase) gene promoter in ROS 17/2.8 (bone) cells
Assay: In vitro transcription assay (24-hydroxylase promoter luciferase reporter)
Format: cell-based
Conditions: ROS 17/2.8 cells, 24OHase-luciferase, 16 h; FIG. 3; read-out: EC50, transcriptional activity in bone cells
Procedure: In Vitro Transcription Assay
Transcription activity was measured in ROS 17/2.8 (bone) cells that were stably transfected with a 24-hydroxylase (24Ohase) gene promoter upstream of a luciferase reporter gene (Arbour et al., 1998). Cells were given a range of doses. Sixteen hours after dosing the cells were harvested and luciferase activities were measured using a luminometer.
RLU=relative luciferase units.

C=C1/C(=C\C=C2/CCC[C@]3(C)[C@@H]([C@H](C)CCCC(C)(C)O)CC[C@@H]23)C[C@@H](O)C[C@@H]1O [1,25(OH)2D3, 1α,25-dihydroxyvitamin D3, reference compound]
EC50: 0.19 nM
